Measured values published in publication PMC4821239, “Molecular architecture of the Dam1 complex–microtubule interaction” (Open Biology, 2016).

T1: Hsk3 (budding yeast) (UniProt P69852)
T1 sequence: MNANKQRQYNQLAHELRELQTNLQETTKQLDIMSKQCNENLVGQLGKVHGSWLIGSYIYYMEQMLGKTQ

B1: Duo1Δ184 (domain or fragment, budding yeast, UniProt P53168 1-183, looked up)
chain: MSEQSQLDDSTIDKLIPQIFNEMRSNLNNTTNKFPKSTGGGASDNISANSNSIRSFNSITTQSLLKESESLDKITAMIKNVTAALKNNLPVYVNQVHEVCKSTNSILDSWINIHSQAGYIHKLMSDQTYLKLINDRLHNENVNTNDEDGSTLHNVIALKKKEILDLRQKLENRKGEKDAAPAK
notes: Duo1, budding yeast; stop codon inserted at position 184; Subunit inside the Dam1 complex Duo1Δ184; also called Duo1 lacking its C terminus (Δ184); source: purified as part of the Dam1 complex Duo1Δ184 (Ni–NTA, Superose 6 size-exclusion chromatography)
B2: Duo1Δ211 (domain or fragment, UniProt P53168 1-210)
chain: MSEQSQLDDSTIDKLIPQIFNEMRSNLNNTTNKFPKSTGGGASDNISANSNSIRSFNSITTQSLLKESESLDKITAMIKNVTAALKNNLPVYVNQVHEVCKSTNSILDSWINIHSQAGYIHKLMSDQTYLKLINDRLHNENVNTNDEDGSTLHNVIALKKKEILDLRQKLENRKGEKDAAPAKPPNQGLNPRYGVQSGRRPVPSAGISNN
B3: Dad1 (protein, UniProt Q12248 1-94)
chain: MMASTSNDEEKLISTTDKYFIEQRNIVLQEINETMNSILNGLNGLNISLESSIAVGREFQSVSDLWKTLYDGLESLSDEAPIDEQPTLSQSKTK
B4: Dad3 (protein, UniProt P69850 1-94)
chain: MEHNLSPLQQEVLDKYKQLSLDLKALDETIKELNYSQHRQQHSQQETVSPDEILQEMRDIEVKIGLVGTLLKGSVYSLILQRKQEQESLGSNSK
B5: Ask1 (natural protein, budding yeast, UniProt P35734 1-292, looked up)
chain: MDSASKEETLEKLDQEITVNLQKIDSNLSFCFHKITQDIIPHVATYSEICERIMDSTEWLGTMFQETGLVNLQANAAAPVGNAPVKSLVSNNVGIFPTSAEEASRQSQTDNGPNEADSAVHVNRDVHSMFNNDSIDDFHTANITSTGQILKLPDSSDEDTGSEAVPSREQTDLTGEGHGGADDEQDESTIQRQSRKRKISLLLQQQYGSSSSMVPSPIVPNKMRKQLAHEEHINNDGDNDDENSNNIESSPLKQGHHHPKGQADDNNEGPDEEESTKEVPKPGTIIHFSTNR
notes: Ask1, subunit of the budding yeast Dam1 complex; Subunit inside the recombinant 10-subunit complex; source: expressed and purified as part of the Dam1 complex as described [3]
B6: Spc19 (natural protein, budding yeast, UniProt Q03954 1-165, looked up)
chain: MTDALEQSVLALEGTVSVLKDSVESLKCANEPSTNLASTMLQTKRVFRLVPEYDVERSKLDLIEEVEPLVRTLGDKLRKSMGRMQRELDTLQQTYELNDLRLKKNISMDDDDALNSPDMGQEYEGRDADDVVMMASSTNEELEELKKLKEKKKQLENKLEILKQK
notes: Spc19, subunit of the budding yeast Dam1 complex; Subunit inside the recombinant 10-subunit complex; also called Sp19; source: expressed and purified as part of the Dam1 complex as described [3]
B7: Spc34 (natural protein, budding yeast, UniProt P36131 1-295, looked up)
chain: MGESLDRCIDDINRAVDSMSTLYFKPPGIFHNAILQGASNKASIRKDITRLIKDCNHDEAYLLFKVNPEKQSVSRRDGKEGVFDYVIKRDTDMKRNRRLGRPGEKPIIHVPKEVYLNKDRLDLNNKRRRTATTSGGGLNGFIFDTDLIGSSVISNSSSGTFKALSAVFKDDPQIQRLLYALENGSVLMEEESNNQRRKTIFVEDFPTDLILKVMAEVTDLWPLTEFKQDYDQLYHNYEQLSSKLRFIKKEVLLQDDRLKTMSQYHPSSSHDVAKIIRKEKDEIRRLEMEIANLQE
notes: Spc34, subunit of the budding yeast Dam1 complex; Subunit inside the recombinant 10-subunit complex; source: expressed and purified as part of the Dam1 complex as described [3]
B8: Dam1ΔC (domain or fragment, UniProt P53267 1-205)
chain: MSEDKAKLGTTRSATEYRLSIGSAPTSRRSSMGESSSLMKFADQEGLTSSVGEYNENTIQQLLLPKIRELSDSIITLDSNFTRLNFIHESLADLNESLGSLLYGIMSNSWCVEFSQAPHDIQDDLIAIKQLKSLEDEKNNLVMELSNMERGIKRKKDEQGENDLAKASQNKQFNQPLFPSSQVRKYRSYDNRDKRKPSKIGNNLQ

What follows are binders tested against T1, Hsk3 (budding yeast) (assay: affinity purification with mass spectrometry; mutant Dam1 complexes purified by the His tag on Hsk3 (Ni-NTA), then Superose 6 size-exclusion chromatography; proteins identified by mass spectrometry).

binding, binds:
B1
B2
B3
B4
B5
B6
B7
B8

Results are given in words; binding and its absence hold for the method and conditions named. Binding seen in cells or lysates may run through a third protein. A yes stands for co-enrichment or nearness to the bait. Other partners may have been found.
